Test results reported in the supplement of paper PMC3334620.
The full ranking holds about 33,000 sequences; the median of “E-score (-0.5 to 0.5)” is about -0.016, and the highest 2% start at about 0.3. The list shows a part of the results.

What follows are sequences tested against T1, Yer184c (UniProt P39961) (assay: PBM E-score (8-mer binding enrichment) (E-score (-0.5 to 0.5)); higher = stronger / more preferred TF binding). Conditions: protein concentration: 100 nM; construct: GST-full length.
T1 sequence: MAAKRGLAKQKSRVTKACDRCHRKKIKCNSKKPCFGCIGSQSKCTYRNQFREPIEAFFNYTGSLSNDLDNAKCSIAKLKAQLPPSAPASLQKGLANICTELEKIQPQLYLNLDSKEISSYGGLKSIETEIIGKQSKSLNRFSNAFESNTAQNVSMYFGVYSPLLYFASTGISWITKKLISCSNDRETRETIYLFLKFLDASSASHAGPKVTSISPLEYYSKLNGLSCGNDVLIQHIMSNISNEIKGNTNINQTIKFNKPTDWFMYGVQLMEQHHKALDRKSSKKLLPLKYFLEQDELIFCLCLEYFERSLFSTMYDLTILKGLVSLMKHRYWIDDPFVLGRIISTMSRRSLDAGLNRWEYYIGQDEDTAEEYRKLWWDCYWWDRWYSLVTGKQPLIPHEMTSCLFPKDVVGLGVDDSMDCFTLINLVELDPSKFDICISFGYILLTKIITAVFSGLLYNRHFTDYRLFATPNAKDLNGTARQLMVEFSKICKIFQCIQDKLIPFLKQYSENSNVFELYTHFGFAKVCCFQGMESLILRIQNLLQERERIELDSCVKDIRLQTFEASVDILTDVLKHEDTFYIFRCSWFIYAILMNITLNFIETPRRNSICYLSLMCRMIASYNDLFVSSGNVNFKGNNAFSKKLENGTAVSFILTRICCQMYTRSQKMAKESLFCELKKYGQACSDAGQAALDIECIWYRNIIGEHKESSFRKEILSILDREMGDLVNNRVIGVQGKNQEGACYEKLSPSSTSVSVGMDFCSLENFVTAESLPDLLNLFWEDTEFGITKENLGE
Method in brief: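 For each ungapped eight-base word taken together with its reverse complement, the Universal PBM Analysis Suite assigned an E-score. Binding data came from GST-tagged yeast transcription factors, applied at about 100-200 nM, on universal all-10-mer Agilent arrays made double-stranded by primer extension. Fluorescent anti-GST marked bound protein, and scans were normalised with masliner.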

Sequence | PBM E-score
GAACGTGC | -0.198
CGTGCAAA | 0.0315
CCAGATCC | -0.121
GGCAAACA | -0.00042
ACGGTCCG | 0.161
GGGCACAA | -0.0612
GTCGAAGA | 0.00616
CGACGTAC | -0.0442
CGTAGACG | 0.0318
CGCCCTAC | -0.283
AACAACTC | -0.0434
GCGTGTAA | -0.168
AGGCCATG | -0.186
GCAAAAAC | 0.0467
CTCAAGAC | 0.0376
ACCTATAG | -0.233
TCAGTAAA | 0.159
CCTCATAC | -0.0481
CGCCGCGA | 0.134
GTTAACTA | 0.124
CGTCCCAA | -0.0429
CTCACCCC | -0.149
CATCTCCC | -0.0754
AACCGACT | 0.0723
CGACTGCA | -0.101

Sequence | PBM E-score
AACAAACC | 0.244
AGTGACTA | -0.0344
ACAGATGC | -0.0566
CCGTCTAA | 0.0805
CTGTAAGA | 0.0561
TAAGAGGA | 0.111
ATGGCCAC | -0.345
ATGAAAAT | 0.23
CAGTTCAG | -0.178
AAAATTAC | 0.127
AAGGCGAG | -0.251
GTTGAAAA | 0.222
ACAGTTTA | 0.0256
CAAGTCAC | -0.137
GAGCACCC | -0.141
GGGGATAC | -0.171
CAGATTTC | 0.0402
GCGCACAC | -0.073
CGCAACGC | 0.0474
CCTCGATA | 0.135
AGTCTGGA | -0.0956
AACAAACG | -0.00974
GCTTCCTA | 0.0691
TCTCTACA | -0.112
GCGGTCCC | 0.11

Three neighbouring records from above:
Sequence | PBM E-score
AGTCTGGA | -0.0956
AACAAACG | -0.00974
GCTTCCTA | 0.0691

Later entries:

Sequence | PBM E-score
AGGCACGA | -0.249
CAGAGAAC | -0.0289
TTAGGGAA | -0.0204
ATGAAAGC | -0.00062
CACGCCTA | -0.263
CCTAGAGC | -0.182
CGGATTAC | 0.172
GGCTTTCA | 0.027
CGTTGGAG | -0.144
GTTTCACA | 0.193
ACGTGCCC | -0.238
GACTGCCA | -0.018
GCCGCCCA | -0.0434
AGTCAAAG | 0.0505
ACGCACAA | 0.00486
AATGAAGG | -0.114
GATCATAC | 0.00835
AGGAATGG | -0.131
AGACTTCC | -0.172
AATACACC | 0.106
CGACCTAG | -0.0304
GCTTGAAA | 0.0857
GCGCTTCC | 0.131
ATAACGTC | 0.0632
GCCCCAAA | -0.218

Sequence | PBM E-score
GGCAGACA | 0.0287
TCGCTTCA | -0.0589
CTTTGTCA | 0.111
ACCGCAAG | -0.0152
ATTGACTC | 0.0736
ATGTTCGA | -0.0724
GTCAGGGA | -0.261
TACGGATA | 0.195
GCTCGGTA | 0.129
AGCATAAC | 0.0223
ATACAAGC | 0.0194
CGACTGGC | -0.0997
ACTTTATA | 0.167
ACATGTGA | -0.0633
CAGGGTGG | -0.265
CTGTTGAC | -0.0978
CAAAATAA | 0.103
ACGTCCTC | -0.192
AGATACGC | -0.0782
CACATATC | -0.117
ATCTGAGA | -0.103
GATGACCA | -0.0988
ATTCTACC | 0.133
ACGTAAAG | -0.0848
AGTATTGA | -0.00576

Sequence | PBM E-score
CCTCTGCG | -0.202
AAACGACA | 0.0459
CGAATTGA | 0.136
GATTGCAC | 0.0569
CTCCACCC | -0.241
TGTGAAAA | 0.178
AAGGAACT | -0.0398
ACATATAG | 0.11
GATCAGGA | 0.0362
GATAGATA | 0.141
ACAGGACT | -0.0866
AAGATGGT | 0.0328
AAGGCGGG | -0.301
CTCAGCCC | -0.179
GTCGCTCA | -0.0541
TCCTTCAA | 0.0519
ACGATGTG | 0.0895
TCCATCCA | -0.178
AGCTACGA | -0.157
CATTCTCC | -0.0087
CGATTTTC | 0.211
ACGCGTCG | 0.147
CGCGTGTA | -0.0652
CCTAGTCC | -0.285
TCTGTACA | 0.189

Sequence | PBM E-score
AGATCTGA | 0.0192
TGGACAAA | 0.0864
CCACTGAC | -0.186
ACAGTTCG | 0.142
AATTCGAC | -0.211
CGCACCGA | -0.204
CCGTTTCG | 0.192
GATATCAC | -0.03
CGTTGCAC | 0.126
ACTATTTC | 0.204
ACCCCCCG | -0.164
GACTAGTA | -0.12
CACTGTCG | -0.192
GGCCAGCC | -0.143
ACAAGCTC | 0.121
CGAAGGAC | -0.0127
ATTTATTA | 0.216
TTTGAAAA | 0.267
AATCAGAA | 0.0533
GGACTGAC | -0.197
ATCTCCAT | -0.15
AATTTGAG | 0.0647
AGGGGTAA | -0.276
AACACCGG | 0.37
CGAGGCGC | 0.0833

Sequence | PBM E-score
AACCGGGG | -0.0803
AATGACGC | -0.137
GACGCGCA | -0.0382
AGTGAGCA | -0.0113
ATCGAGAG | -0.0983
CGAACCGC | 0.189
TATCATAA | 0.111
CGACGCGC | 0.163
CTTGTGCA | -0.0491
AGAGCGTA | -0.225
TACGATGA | -0.078
ACCCTACC | -0.206
CCTGTAGC | -0.24
CTCTGGGC | -0.0695
GCCTTAAC | -0.171
CAAAACTA | 0.28
AATCCTCA | -0.0565
AAGCTGCC | -0.0481
CGCTATCA | -0.0816
GGATCGAA | 0.0975
CAACCGTA | -0.247
AAATAGCG | 0.0568
GACGCACC | -0.155
AGGCCTAA | 0.0613
AACTCCCA | -0.0901

An excerpt of these results, in markdown:

| Sequence | PBM E-score |
| --- | --- |
| GACGCGCA | -0.0382 |
| AGTGAGCA | -0.0113 |
| CGAACCGC | 0.189 |
| CTTGTGCA | -0.0491 |
| TACGATGA | -0.078 |
| ACCCTACC | -0.206 |
| CGCTATCA | -0.0816 |

Later entries

Sequence | PBM E-score
ACACCTTG | -0.0975
CCCCTGTC | -0.361
CCGTTTTC | 0.136
ATAATATG | 0.132
ACCTTGTA | -0.102
CACGAAAA | 0.118
GTCGGTGA | -0.0943
GATCCCTA | -0.21
CTCCGCTA | -0.195
AAGTCCGC | 0.0399
GCTACCGA | 0.0575
CGCCTGCC | -0.0886
AGGTCCGG | 0.172
ACAGAACG | -0.113
ACGCTGCA | -0.148
CCGAGAAC | 0.277
AGGATCCA | -0.173
AAGCTCAT | -0.0896
GCTCTCAC | -0.194
CCTCACCC | -0.122
GCAAATCA | -0.00983
ATATCGTC | 0.0866
AACCTCTT | 0.178
AACGCTAC | -0.175
CGGTAGAC | 0.136

Sequence | PBM E-score
AACGTCCT | -0.149
AATTGCGA | -0.0921
TAACACAA | 0.16
AGACAAGA | 0.137
AGCTTGGA | -0.226
ACAGGTCC | -0.101
AATATCAA | 0.0839
GATCGAAA | 0.214
GAAGATTC | 0.155
AAGAGTTC | -0.161
GAAAGTTC | 0.0335
ATAAGGTA | -0.177
TCCTTCGA | 0.138
GCTGCCGA | 0.292
CCGCCTAA | -0.107
GTACTCTA | -0.185
ACAACGCT | -0.139
AGTAGGTA | -0.0881
GAACACTC | 0.13
